In patent US20060148683A1, “Detection and treatment of intravascular lesions” (priority 2001, published 2006):
At least one structure is not confirmed: it was looked up by name or label, or the drawing left a doubt. Starred links: 1 amine or outer side, 2 acyl side, 3 side chain; linkers in the order of their positions; H or OH if unused. Positions of bridges follow the written chain, without caps; N, C: chain ends. Non-standard residues stand in square brackets, D forms with d. Residues, ends and D or L forms follow the SMILES beside them. Groups on a side chain read outwards from the residue. *: point of attachment. NH(Fluorescein-5-yl) = O=C1OC2(c3ccc(O)cc3Oc3cc(O)ccc32)c2ccc(N*)cc21; Tyr(3-I) = N[C@@H](Cc1ccc(O)c(I)c1)C(=O)O; Hyp = O=C(O)[C@@H]1C[C@@H](O)CN1; CO = O=C([*:1])[*:2]

Protein sequences, listed by entry. Tags and fused reporters are not part of them. Residues count along the entry.
UniProt P02671, 36-97 limits assumed, stated change not applied: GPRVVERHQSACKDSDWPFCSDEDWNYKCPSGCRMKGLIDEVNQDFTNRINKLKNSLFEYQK
UniProt P02671, 130-216 limits assumed, stated change not applied: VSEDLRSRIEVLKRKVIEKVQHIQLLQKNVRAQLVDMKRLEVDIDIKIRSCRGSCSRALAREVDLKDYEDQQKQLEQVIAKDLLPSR
UniProt P02675, 164-491 limits assumed, stated change not applied: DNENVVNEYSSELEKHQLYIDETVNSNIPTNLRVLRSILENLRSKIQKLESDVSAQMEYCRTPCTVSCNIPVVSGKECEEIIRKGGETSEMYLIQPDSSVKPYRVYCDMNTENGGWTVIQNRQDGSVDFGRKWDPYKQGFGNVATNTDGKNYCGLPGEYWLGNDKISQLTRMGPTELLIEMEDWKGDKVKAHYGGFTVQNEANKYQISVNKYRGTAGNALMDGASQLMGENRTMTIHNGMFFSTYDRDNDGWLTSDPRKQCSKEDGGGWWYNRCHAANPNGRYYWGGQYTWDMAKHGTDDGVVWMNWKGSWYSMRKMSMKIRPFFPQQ
UniProt P02675, 45-152 limits assumed, stated change not applied: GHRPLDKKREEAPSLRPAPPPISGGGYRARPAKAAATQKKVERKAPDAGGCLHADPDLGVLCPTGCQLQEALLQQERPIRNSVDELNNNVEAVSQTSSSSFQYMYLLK
UniProt P02679, 114-432 limits assumed, stated change not applied: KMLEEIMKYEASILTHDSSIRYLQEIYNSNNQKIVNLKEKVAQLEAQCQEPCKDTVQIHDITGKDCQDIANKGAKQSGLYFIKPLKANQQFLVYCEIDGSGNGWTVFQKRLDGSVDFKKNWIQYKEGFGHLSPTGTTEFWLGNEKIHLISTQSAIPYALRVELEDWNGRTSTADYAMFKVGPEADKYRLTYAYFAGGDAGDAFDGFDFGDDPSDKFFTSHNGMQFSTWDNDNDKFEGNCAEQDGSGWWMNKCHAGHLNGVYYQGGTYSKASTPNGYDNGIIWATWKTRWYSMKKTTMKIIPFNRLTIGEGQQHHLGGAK
UniProt P02679, 27-88 limits assumed, stated change not applied: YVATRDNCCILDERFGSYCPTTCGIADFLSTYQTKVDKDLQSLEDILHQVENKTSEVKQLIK

target: T1, DD(E) fragment of fibrin (Homo sapiens, UniProt P02671+P02675+P02679, DEL433-453); assay: Dissociation constant (Kd) of optical agent for DD(E) fragment of fibrin; format: binding; conditions: 24° C.
T1 construct: complex of the crosslinked D domains of adjacent fibrin monomers with the central E domain of fibrin
Text: Optical agents of the invention include an OD and a FBM covalently bound to each other, either directly or via a linker (OD-L-FBM). The FBM can be a small molecule or a peptide. As used herein, the term “peptide” refers to a chain of amino acids that is about 2 to about 75 amino acids in length (e.g., 3 to 50 amino acids). Affinity of a peptide for fibrin can be expressed in terms of its dissociation constant (Kd), which is the equilibrium constant for the dissociation reaction of the peptide from the DD(E) fragment of fibrin. The term “DD(E) fragment of fibrin” refers to a fibrin subcomponent generated by proteolytic degradation of fibrin with plasmin or trypsin. The DD(E) fragment is a complex of the crosslinked D domains of adjacent fibrin monomers with the central E domain of fibrin (See, for example, Spraggon et al., Nature 389:455462 (1997)). Since DD(E) is a product resulting from the proteolysis of fibrin, one of skill in the art will understand that there may be some slight heterogeneity in its composition. The DD(E) fragment can be biotinylated and immobilized via avidin to a solid substrate (e.g., a multi-well plate). Peptides can be incubated with the immobilized DD(E) fragment in a suitable buffer and binding detected using known methodology. Methods for determining the dissociation constant of the peptide for DD(E) are set forth in WO 01/09188.
As a result of the FBM having affinity for fibrin, the optical agent also has affinity for fibrin. […] The affinity of an optical agent can be expressed in terms of its Kd, which is the equilibrium constant for the dissociation reaction of the optical agent from fibrin, and determined as discussed above for the peptide. […]
In the methods of the present invention, the optical agent forms a fibrin-optical agent complex at the site of the lesion. The ability of the optical agent to form a fibrin-optical agent complex may be measured by examining the optical agent's dissociation constant (Kd) for a DD(E) fragment of fibrin as discussed above.

Compound	Kd
CC[C@H](C)[C@H](NC(=O)[C@H](Cc1c[nH]cn1)NC(=O)[C@@H]1CSSC[C@H](NC(=O)[C@H](Cc2c[nH]cn2)NC(=O)[C@H](Cc2ccccc2)NC(=O)CNC(=O)[C@@H](N)CCCCNC(=O)Nc2ccc3c(c2)C(=O)OC32c3ccc(O)cc3Oc3cc(O)ccc32)C(=O)N2C[C@H](O)C[C@H]2C(=O)N[C@@H](Cc2ccc(O)c(I)c2)C(=O)N[C@@H](CC(=O)O)C(=O)N[C@@H](CC(C)C)C(=O)N1)C(=O)N[C@@H](CC(C)C)C(N)=O [Structure VII] (H-K([CO-NH(Fluorescein-5-yl)])GFHC[Hyp][Tyr(3-I)]DLCHIL-NH2; disulfide 5-10)	0.1 µM
CC[C@H](C)[C@H](NC(=O)[C@H](Cc1c[nH]cn1)NC(=O)[C@@H]1CSSC[C@H](NC(=O)[C@H](Cc2c[nH]cn2)NC(=O)[C@H](Cc2ccccc2)NC(=O)[C@@H](N)CCCCNC(=O)Nc2ccc3c(c2)C(=O)OC32c3ccc(O)cc3Oc3cc(O)ccc32)C(=O)N2C[C@H](O)C[C@H]2C(=O)N[C@@H](Cc2ccc(O)c(I)c2)C(=O)N[C@@H](CC(=O)O)C(=O)N[C@@H](CC(C)C)C(=O)N1)C(=O)N[C@@H](CC(C)C)C(N)=O [Structure VI] (H-K([CO-NH(Fluorescein-5-yl)])FHC[Hyp][Tyr(3-I)]DLCHIL-NH2; disulfide 4-9)	0.2 µM
CC[C@H](C)[C@H](NC(=O)[C@H](Cc1c[nH]cn1)NC(=O)[C@@H]1CSSC[C@H](NC(=O)[C@H](Cc2c[nH]cn2)NC(=O)[C@H](Cc2ccccc2)NC(=O)[C@H](Cc2c[nH]c3ccccc23)NC(=O)[C@@H](N)CCCCNC(=O)Nc2ccc3c(c2)C(=O)OC32c3ccc(O)cc3Oc3cc(O)ccc32)C(=O)N2C[C@H](O)C[C@H]2C(=O)N[C@@H](Cc2ccc(O)c(I)c2)C(=O)N[C@@H](CC(=O)O)C(=O)N[C@@H](CC(C)C)C(=O)N1)C(=O)N[C@@H](CC(C)C)C(N)=O [Structure VIII] (H-K([CO-NH(Fluorescein-5-yl)])WFHC[Hyp][Tyr(3-I)]DLCHIL-NH2; disulfide 5-10)	0.1 µM
